Earlier results as cited in patent US12419869B2, “Methods of treating multiple sclerosis” (Vanda Pharmaceuticals Inc., priority 2021, dated 2025).
At least one structure is not confirmed: it was looked up by name or label, or the drawing left a doubt.

Tested on: patients with relapsing multiple sclerosis
Details: teriflunomide 14 mg; cited from earlier work

C/C(O)=C(\C#N)C(=O)Nc1ccc(C(F)(F)F)cc1 [Teriflunomide, reference compound]
Risk of 12-week CDP in TEMSO and TOWER studies: statistically significant reduction
